# Measurements taken from paper PMC9440123, “Rtt105 regulates RPA function by configurationally stapling the flexible domains” (Nature Communications, 2022).
# The chains behind the UniProt entries cited, without tags or fusion partners. Where a name states a change or a piece, a line headed by the entry shows the natural chain unless it says otherwise.
# UniProt P22336: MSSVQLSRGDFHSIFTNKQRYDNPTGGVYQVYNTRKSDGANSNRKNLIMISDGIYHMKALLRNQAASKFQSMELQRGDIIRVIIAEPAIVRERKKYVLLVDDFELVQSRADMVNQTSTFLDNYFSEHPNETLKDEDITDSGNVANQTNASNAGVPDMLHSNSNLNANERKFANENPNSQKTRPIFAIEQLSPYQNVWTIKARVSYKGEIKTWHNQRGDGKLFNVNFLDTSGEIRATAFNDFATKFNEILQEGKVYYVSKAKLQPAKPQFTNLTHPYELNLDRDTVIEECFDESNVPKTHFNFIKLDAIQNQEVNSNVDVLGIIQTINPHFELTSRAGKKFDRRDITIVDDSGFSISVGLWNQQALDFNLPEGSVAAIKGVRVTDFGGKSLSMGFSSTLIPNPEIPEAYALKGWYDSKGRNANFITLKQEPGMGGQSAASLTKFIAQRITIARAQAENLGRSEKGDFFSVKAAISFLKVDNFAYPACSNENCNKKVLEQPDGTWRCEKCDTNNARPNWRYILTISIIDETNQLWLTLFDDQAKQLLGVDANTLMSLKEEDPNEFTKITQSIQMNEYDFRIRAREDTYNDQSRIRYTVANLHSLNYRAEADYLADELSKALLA
# UniProt P26754: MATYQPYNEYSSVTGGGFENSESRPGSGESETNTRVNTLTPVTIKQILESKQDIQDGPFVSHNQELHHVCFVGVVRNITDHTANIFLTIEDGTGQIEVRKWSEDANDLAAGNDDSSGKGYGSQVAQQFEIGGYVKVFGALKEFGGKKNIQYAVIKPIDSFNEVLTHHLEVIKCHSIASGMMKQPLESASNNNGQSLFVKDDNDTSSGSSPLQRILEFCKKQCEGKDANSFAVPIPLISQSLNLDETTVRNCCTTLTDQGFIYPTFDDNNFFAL
# UniProt P26755: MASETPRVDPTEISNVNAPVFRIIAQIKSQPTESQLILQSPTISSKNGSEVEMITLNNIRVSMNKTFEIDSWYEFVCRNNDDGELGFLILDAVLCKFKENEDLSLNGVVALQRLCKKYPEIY
# No constants are given. Whether binding was seen depends on the method and setting. Some entries that bind do so weakly or less than the wild type.
# B1: Rtt105^Cy5 (Rtt105^C13S labeled with Cy5 on Cys-12) (natural protein, S. cerevisiae, UniProt P40063 1-208, looked up)
# chain: MYSNHNLNSDDCSFDWNEEKAAELQRTGVSFDRSLTPQSLRTSTRRLSEENKQQSGTMHIDTSPSVVSDIISSRRDRSQDFFGPHSSSPIAPSERQRADQRSRLESMRLTRRRDKMTKVRGGLEKMEEMIMQGEHLREMQRLKQEAQKNALPSDMAEYMEWQNNEDLEDDELLAFIEKQETYKNELEHFLNNANKNVYENNSYPNSHT
# modifications: Cy5 (maleimide chemistry) on Cys-12
# notes: Rtt105, S. cerevisiae, single-Cys version; also called Cy5-labeled Rtt105; fluorescent Rtt105; source: E. coli, purified similar to the wild-type protein, labeled with Cy5-maleimide
# Target: Replication Protein A (RPA), S. cerevisiae heterotrimer of RPA70, RPA32 and RPA14 (S. cerevisiae) (UniProt P22336+P26754+P26755)
# Test: AUC; sedimentation velocity as a14; Rtt105^Cy5, RPA and Rad52 with an equimolar amount of (dT)35; both purified
binder,measurement,value
B1,binding,binds weakly
